Experimental findings from PubChem BioAssay AID228 (DTP/NCI, 2004) are described below.

This assay relates to BDF1 mice, Friend leukemia sc, tumor weight T/C. Put plainly: NCI In Vivo Anticancer Drug Screen. Data for tumor model Friend Virus Leukemia (Solid) (subcutaneous) in B6D2F1 (BDF1) mice. Particulars: T/C endpoint: mean tumor weight, schedule: Q01DX011 (ip), evaluation day not shown, higher T/C = larger tumour. On the procedure:
The antitumor activity of compounds was measured in mice bearing transplantable tumors. Survival or tumor size were measured and the results are expressed as the measurement made in the treated group (T) divided by the measurement made in the vehicle treated control group (C). The tumor model used in this assay is Friend Virus Leukemia (Solid) (subcutaneous) in B6D2F1 (BDF1) mice

The list does not hold the whole screen: its compounds were picked by chemical class. Not every dose and run of a compound is shown. T/C is the treated group as % of the vehicle group. Some T/C values are marked as having no survivor count here; that says nothing about deaths at the dose. Schedules are NCI's codes, read here as Q, the interval in days (D) or hours (H), X, the number of doses.

Take `Cc1cc2nc(CN(CCCl)CCCl)[nH]c2cc1C`: the T/C was 82 % of control [survivor count not shown] (dose: 15.0 mg/kg/injection, vehicle: carboxymethylcellulose (CMC)); 96 % of control [survivor count not shown] (dose: 30.0 mg/kg/injection, vehicle: carboxymethylcellulose (CMC)); 67 % of control [survivor count not shown] (dose: 60.0 mg/kg/injection, vehicle: carboxymethylcellulose (CMC)).

On to `ClCCCCC(CCl)NCCCl` (configuration not stated), for which the T/C runs as follows: (dose: 1.0 mg/kg/injection, vehicle: saline) 88 % of control [survivor count not shown]; (dose: 2.0 mg/kg/injection, vehicle: saline) 121 % of control [survivor count not shown]; (dose: 4.0 mg/kg/injection, vehicle: saline) 102 % of control [survivor count not shown]; (dose: 8.7 mg/kg/injection, vehicle: saline) 57 % of control [survivor count not shown]; (dose: 9.0 mg/kg/injection, vehicle: saline) 58 % of control [survivor count not shown]; (dose: 17.5 mg/kg/injection, vehicle: saline) 46 % of control [survivor count not shown]. Under “dose: 35.0 mg/kg/injection, vehicle: saline”, the T/C was 25 % of control [survivor count not shown].

Regarding `COCc1c(CN(CCCl)CCCl)cnc(C)c1O`, the T/C (dose: 3.75 mg/kg/injection, vehicle: saline) is 108 % of control [survivor count not shown] and the T/C (dose: 7.5 mg/kg/injection, vehicle: saline) was 52 % of control [survivor count not shown].
